Values from PubChem BioAssay AID1508597 (Cure First, 2020).
Shown is an unselected part of the about 2,100 reagents, under one of the conditions tested. 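Calls flag viability under 80% in either arm, not effects specific to rucaparib; the reference for percent is not stated.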 A number with no mark means an inactive call. Some reagents were tested in more than one well and are listed for each. The record does not give: the 100% reference.

Assay: 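Genes whose silencing sensitises or protects ovarian cancer cells against rucaparib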 (primary screen)
Cell system: human ovarian carcinoma lines grown from tumours: OCI-P5x (papillary serous) and OCI-C5x (clear cell)
Reagent: siRNA pool against human genes, 1.25 pmol siRNA per well
Timing: 72 h or 96 h, depending on the cell culture
Conditions: rucaparib 20 µM (about IC30) or vehicle, present until read-out
Rucaparib or vehicle: Vehicle
Cell line: OCI-P5x (serous)
Read-out: 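ATP luminescence measured at 72 or 96 h according to the culture, then normalised and expressed as percent viability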
Direction: viability, normalised: higher = more viable cells remaining
Hit rule: 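Active when normalised viability falls below 80 percent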
Meaning of the calls: active = viability under 80%; inactive = viability 80% or more

MAP3K7, technical replicate 1: viability, normalised (%) = 89.6
MAP3K7, technical replicate 2: viability, normalised (%) = 82.7
MAP3K7, technical replicate 3: viability, normalised (%) = 66.6 (active)
ADK, technical replicate 1: viability, normalised (%) = 97
ADK, technical replicate 2: viability, normalised (%) = 83
ADK, technical replicate 3: viability, normalised (%) = 82.1
CHMP1B, technical replicate 1: viability, normalised (%) = 81.1
CHMP1B, technical replicate 2: viability, normalised (%) = 70.3 (active)
CHMP1B, technical replicate 3: viability, normalised (%) = 64.1 (active)
MAP3K13, technical replicate 1: viability, normalised (%) = 88.4
MAP3K13, technical replicate 1: viability, normalised (%) = 54.8 (active)
MAP3K13, technical replicate 2: viability, normalised (%) = 94.9
MAP3K13, technical replicate 2: viability, normalised (%) = 52 (active)
MAP3K13, technical replicate 3: viability, normalised (%) = 99.1
MAP3K13, technical replicate 3: viability, normalised (%) = 58.2 (active)
POLR1B, technical replicate 1: viability, normalised (%) = 56.7 (active)
POLR1B, technical replicate 2: viability, normalised (%) = 50.7 (active)
POLR1B, technical replicate 3: viability, normalised (%) = 64.7 (active)
ZDHHC3, technical replicate 1: viability, normalised (%) = 98.6
ZDHHC3, technical replicate 2: viability, normalised (%) = 54.1 (active)
ZDHHC3, technical replicate 3: viability, normalised (%) = 61.4 (active)
POLK, technical replicate 1: viability, normalised (%) = 72.8 (active)
POLK, technical replicate 1: viability, normalised (%) = 56.1 (active)
POLK, technical replicate 2: viability, normalised (%) = 54.1 (active)
POLK, technical replicate 2: viability, normalised (%) = 57 (active)
POLK, technical replicate 3: viability, normalised (%) = 53.4 (active)
POLK, technical replicate 3: viability, normalised (%) = 69.7 (active)
TNP1, technical replicate 1: viability, normalised (%) = 66.3 (active)
TNP1, technical replicate 2: viability, normalised (%) = 95.4
TNP1, technical replicate 3: viability, normalised (%) = 119
KMT2D, technical replicate 1: viability, normalised (%) = 60.8 (active)
KMT2D, technical replicate 2: viability, normalised (%) = 53.3 (active)
KMT2D, technical replicate 3: viability, normalised (%) = 61.4 (active)
